Measurements from the supplement of paper PMC10849652.
The list shows a part of the results.

Chains of the proteins cited; added tags and fusions are not shown. Lines headed by an entry give the natural chain unless they say otherwise; changes in a name come on top.
UniProt Q86XL3: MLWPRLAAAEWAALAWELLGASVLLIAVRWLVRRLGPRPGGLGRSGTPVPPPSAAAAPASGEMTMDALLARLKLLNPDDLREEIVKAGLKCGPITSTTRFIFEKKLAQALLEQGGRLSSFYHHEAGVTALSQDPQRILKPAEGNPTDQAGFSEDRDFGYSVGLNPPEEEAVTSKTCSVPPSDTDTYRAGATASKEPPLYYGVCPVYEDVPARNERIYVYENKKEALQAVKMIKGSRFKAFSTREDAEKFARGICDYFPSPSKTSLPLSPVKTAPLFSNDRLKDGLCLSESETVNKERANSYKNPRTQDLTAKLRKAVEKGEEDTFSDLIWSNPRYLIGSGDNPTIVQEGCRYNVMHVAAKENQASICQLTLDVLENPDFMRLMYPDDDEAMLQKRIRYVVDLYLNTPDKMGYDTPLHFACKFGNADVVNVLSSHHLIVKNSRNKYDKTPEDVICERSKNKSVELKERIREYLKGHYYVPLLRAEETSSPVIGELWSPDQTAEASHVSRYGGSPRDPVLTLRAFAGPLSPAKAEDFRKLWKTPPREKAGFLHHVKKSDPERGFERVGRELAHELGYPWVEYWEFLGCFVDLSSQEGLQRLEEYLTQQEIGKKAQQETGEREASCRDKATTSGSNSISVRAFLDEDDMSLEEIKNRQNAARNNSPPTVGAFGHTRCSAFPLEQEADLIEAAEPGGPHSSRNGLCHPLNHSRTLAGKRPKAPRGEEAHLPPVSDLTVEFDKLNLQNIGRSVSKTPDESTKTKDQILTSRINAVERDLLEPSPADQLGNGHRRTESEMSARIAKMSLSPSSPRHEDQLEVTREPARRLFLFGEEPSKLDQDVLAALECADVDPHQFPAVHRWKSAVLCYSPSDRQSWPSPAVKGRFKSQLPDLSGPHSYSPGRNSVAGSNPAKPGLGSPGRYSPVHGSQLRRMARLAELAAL
UniProt Q9BV10: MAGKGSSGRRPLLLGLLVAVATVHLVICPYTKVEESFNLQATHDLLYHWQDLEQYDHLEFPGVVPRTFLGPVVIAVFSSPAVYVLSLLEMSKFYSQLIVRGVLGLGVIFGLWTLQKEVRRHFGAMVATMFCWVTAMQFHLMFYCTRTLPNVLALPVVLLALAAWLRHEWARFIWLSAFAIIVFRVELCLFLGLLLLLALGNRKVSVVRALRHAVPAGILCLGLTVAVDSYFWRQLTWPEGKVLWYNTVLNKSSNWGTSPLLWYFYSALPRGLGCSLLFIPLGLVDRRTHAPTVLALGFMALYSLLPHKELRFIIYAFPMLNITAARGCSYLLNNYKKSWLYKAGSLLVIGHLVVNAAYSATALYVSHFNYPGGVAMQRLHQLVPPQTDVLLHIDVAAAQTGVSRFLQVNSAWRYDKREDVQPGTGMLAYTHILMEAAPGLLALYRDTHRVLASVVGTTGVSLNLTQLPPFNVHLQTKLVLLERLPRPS
UniProt Q6ZW76: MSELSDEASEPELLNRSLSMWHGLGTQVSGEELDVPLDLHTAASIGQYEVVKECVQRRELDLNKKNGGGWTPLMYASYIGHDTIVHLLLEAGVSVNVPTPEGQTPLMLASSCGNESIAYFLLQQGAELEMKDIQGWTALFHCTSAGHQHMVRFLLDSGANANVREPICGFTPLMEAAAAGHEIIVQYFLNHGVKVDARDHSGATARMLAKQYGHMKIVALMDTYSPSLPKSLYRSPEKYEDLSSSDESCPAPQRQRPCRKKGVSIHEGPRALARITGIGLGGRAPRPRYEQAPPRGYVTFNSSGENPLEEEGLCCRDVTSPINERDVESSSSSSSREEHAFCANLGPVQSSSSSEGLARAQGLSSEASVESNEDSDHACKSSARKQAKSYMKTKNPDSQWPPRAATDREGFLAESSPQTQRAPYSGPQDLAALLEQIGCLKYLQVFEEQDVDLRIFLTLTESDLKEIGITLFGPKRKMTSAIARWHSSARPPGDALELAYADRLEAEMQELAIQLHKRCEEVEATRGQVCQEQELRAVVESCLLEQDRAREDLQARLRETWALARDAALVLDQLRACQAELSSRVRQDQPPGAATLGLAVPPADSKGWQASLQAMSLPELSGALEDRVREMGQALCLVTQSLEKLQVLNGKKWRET
UniProt Q2TAA5: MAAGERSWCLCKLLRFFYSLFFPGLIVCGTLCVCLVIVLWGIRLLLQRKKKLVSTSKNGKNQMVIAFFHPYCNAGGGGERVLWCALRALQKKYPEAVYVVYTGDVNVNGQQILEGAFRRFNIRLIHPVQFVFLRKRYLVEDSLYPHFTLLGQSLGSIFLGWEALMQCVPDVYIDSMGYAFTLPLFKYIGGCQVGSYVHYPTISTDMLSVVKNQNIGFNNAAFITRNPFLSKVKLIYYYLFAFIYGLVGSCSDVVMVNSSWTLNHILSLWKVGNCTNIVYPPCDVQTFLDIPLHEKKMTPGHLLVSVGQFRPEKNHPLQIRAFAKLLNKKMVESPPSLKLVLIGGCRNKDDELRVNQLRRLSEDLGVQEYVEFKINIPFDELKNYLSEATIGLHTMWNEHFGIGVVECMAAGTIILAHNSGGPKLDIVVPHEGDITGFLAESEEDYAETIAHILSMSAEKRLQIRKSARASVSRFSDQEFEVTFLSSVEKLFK
UniProt Q68DC2: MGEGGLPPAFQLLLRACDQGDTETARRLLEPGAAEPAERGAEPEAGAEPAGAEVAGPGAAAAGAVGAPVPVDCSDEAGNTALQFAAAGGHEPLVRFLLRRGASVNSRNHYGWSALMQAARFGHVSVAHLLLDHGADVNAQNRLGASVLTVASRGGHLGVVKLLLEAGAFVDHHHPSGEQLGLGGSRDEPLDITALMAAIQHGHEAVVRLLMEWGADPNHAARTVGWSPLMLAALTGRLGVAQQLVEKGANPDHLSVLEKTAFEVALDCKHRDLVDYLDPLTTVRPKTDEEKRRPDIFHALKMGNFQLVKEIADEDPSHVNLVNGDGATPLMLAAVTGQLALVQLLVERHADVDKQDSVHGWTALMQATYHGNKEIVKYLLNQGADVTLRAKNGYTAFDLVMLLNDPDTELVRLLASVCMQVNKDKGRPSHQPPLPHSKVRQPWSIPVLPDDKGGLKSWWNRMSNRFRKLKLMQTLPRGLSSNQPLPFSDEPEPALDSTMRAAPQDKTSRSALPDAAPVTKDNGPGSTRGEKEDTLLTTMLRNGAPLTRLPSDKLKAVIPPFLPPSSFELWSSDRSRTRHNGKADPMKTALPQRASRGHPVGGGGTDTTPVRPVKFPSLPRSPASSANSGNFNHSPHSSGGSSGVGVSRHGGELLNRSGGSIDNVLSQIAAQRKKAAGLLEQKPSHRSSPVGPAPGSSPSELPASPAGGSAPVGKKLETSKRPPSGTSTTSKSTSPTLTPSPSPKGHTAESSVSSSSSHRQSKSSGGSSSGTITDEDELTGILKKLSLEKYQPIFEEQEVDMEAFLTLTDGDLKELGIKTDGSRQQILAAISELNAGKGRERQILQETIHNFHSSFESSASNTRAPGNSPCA
UniProt Q4VCS5: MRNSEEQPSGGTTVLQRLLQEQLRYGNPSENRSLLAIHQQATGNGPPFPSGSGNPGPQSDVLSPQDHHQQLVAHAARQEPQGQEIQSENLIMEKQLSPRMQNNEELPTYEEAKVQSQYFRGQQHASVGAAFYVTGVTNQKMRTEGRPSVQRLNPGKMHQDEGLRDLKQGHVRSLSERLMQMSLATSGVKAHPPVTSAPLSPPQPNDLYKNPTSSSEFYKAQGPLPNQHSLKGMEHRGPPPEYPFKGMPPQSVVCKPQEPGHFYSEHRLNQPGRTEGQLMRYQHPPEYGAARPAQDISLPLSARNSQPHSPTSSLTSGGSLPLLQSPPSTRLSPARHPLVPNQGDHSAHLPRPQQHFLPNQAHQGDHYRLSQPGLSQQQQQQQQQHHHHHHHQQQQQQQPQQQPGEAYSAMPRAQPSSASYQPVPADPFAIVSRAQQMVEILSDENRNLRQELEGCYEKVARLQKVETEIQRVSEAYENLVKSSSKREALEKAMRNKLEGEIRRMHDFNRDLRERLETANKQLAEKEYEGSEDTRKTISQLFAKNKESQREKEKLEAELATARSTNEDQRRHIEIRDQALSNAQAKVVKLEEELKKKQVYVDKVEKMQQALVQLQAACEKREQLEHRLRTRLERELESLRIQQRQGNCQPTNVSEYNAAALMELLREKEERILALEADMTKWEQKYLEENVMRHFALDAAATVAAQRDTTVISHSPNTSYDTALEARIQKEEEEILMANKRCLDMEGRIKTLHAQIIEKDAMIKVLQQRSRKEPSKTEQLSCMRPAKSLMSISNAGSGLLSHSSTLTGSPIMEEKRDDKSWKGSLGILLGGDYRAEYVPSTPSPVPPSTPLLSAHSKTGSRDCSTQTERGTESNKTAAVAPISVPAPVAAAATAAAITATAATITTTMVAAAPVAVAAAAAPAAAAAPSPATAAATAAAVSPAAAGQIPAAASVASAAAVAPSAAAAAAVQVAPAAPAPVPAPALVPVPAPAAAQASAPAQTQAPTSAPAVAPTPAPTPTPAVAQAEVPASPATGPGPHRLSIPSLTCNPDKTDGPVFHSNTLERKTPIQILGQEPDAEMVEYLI
UniProt Q9BTT0: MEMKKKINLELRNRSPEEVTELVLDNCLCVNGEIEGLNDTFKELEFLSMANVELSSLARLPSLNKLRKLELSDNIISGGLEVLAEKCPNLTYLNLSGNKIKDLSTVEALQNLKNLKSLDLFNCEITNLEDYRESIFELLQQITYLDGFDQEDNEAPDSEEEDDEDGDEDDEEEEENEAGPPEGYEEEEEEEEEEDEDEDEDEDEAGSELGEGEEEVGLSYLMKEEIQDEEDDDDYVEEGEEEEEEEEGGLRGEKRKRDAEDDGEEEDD
UniProt Q7Z6G8: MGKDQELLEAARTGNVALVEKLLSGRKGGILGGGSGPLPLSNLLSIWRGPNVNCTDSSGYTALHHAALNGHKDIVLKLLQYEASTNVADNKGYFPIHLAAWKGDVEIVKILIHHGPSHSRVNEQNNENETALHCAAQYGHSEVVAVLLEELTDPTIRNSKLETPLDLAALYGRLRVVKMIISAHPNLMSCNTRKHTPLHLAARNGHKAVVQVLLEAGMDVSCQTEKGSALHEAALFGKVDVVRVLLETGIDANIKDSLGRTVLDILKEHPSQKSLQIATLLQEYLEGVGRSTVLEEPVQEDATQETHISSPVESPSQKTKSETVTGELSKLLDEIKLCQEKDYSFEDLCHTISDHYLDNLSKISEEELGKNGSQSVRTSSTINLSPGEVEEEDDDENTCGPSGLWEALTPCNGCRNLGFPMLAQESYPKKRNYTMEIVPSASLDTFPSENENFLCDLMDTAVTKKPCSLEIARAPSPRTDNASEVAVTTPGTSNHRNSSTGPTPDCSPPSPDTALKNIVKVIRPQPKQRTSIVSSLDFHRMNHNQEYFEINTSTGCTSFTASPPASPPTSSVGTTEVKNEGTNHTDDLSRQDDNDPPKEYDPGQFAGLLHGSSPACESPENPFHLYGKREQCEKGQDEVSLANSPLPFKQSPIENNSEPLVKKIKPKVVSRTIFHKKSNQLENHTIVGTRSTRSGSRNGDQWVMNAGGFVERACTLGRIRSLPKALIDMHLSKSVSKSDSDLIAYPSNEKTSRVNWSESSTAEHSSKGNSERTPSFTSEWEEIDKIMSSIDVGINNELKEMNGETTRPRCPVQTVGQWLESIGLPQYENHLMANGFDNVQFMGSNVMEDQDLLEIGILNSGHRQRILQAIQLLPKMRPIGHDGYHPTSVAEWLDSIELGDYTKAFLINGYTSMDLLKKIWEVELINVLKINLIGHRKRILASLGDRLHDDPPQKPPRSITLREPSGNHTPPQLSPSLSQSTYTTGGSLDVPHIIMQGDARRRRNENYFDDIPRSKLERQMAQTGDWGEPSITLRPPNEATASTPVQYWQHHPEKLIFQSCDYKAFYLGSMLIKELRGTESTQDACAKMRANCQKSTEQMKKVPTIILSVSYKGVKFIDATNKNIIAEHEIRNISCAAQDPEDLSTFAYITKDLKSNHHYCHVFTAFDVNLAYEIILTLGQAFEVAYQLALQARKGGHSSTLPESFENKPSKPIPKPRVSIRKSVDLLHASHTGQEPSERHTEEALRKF
UniProt P47895: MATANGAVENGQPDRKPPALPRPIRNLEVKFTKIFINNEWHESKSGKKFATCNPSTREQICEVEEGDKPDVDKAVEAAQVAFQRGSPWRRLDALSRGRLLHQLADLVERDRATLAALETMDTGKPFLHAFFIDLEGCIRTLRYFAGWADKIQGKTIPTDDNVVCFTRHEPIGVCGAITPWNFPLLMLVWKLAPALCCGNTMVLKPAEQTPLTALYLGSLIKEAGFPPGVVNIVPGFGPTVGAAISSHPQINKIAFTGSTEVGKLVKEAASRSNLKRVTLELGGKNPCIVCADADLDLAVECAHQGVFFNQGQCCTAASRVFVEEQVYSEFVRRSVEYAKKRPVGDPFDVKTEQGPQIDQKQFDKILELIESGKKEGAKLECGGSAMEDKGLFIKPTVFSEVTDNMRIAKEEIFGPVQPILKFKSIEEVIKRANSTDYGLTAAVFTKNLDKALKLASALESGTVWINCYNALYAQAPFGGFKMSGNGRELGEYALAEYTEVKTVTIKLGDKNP

Columns and labels:
Test in all cases: log2 fold change, soluble protein after heating vs DMSO (PISA); higher = thermal stabilisation; K562 lysate, 10 uM; active = over 0.2 and 3.5 SD of the protein, either way, in both replicates (recomputed)
alvocidib = compound: CN1CC[C@H](c2c(O)cc(O)c3c(=O)cc(-c4ccccc4Cl)oc23)[C@H](O)C1 [alvocidib]
In short: (§1)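 Log-two fold change in thermal stability relative to solvent controls is reported from duplicates. For each sample, crude K562 extract from dounce-homogenised pellets in PBS pH 7.4 with 1 mM MgCl2, at 1 mg/mL protein, was treated with 10 μM compound for 30 min. Aliquots heated for 3 min across 48°C-58°C were pooled, brought to 0.5% NP-40 at 4°C and cleared at 21,000xg for 90 min. The supernatant was quantified by TMTpro 16plex LC-MS/MS with channel sums equalised.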

Tubastatin A = compound: CN1CCc2c(c3ccccc3n2Cc2ccc(C(=O)NO)cc2)C1 [Tubastatin A]
In short: as §1

[1] = compound: CNC(=O)C1=CC=CC=C1NC2=NC(=NC=C2Cl)NC3=C(C=C(C=C3)N4CCOCC4)OC
In short: as §1

defactinib = compound: CNC(=O)c1ccc(Nc2ncc(C(F)(F)F)c(NCc3nccnc3N(C)S(C)(=O)=O)n2)cc1 [defactinib]
In short: as §1

[2] = compound: CNc1nc(-c2ccc3c(N)n[nH]c3c2)cc(N2C[C@@H](C(=O)NC3CCCCC3)CC[C@H]2C)n1
In short: as §1

encorafenib = compound: COC(=O)N[C@@H](C)CNc1nccc(-c2cn(C(C)C)nc2-c2cc(Cl)cc(NS(C)(=O)=O)c2F)n1 [encorafenib]
In short: as §1

[3] = compound: COC(=O)[C@H](CCSC)NC(=O)C1=C(C=C(C=C1)NC[C@H](CS)N)C2=CC=CC=C2
In short: as §1

alisertib = compound: COc1cc(Nc2ncc3c(n2)-c2ccc(Cl)cc2C(c2c(F)cccc2OC)=NC3)ccc1C(=O)O [alisertib]
In short: as §1

gefitinib = compound: COc1cc2ncnc(Nc3ccc(F)c(Cl)c3)c2cc1OCCCN1CCOCC1 [gefitinib]
In short: as §1

[4] = compound: COc1cc2nc(-c3cc(F)ccc3O)nc(N[C@@H]3CNC[C@H]3C(C)(C)O)c2cc1OC
In short: as §1

Measured: log2 fold change

ANKLE2 (UniProt Q86XL3)
inactive: alvocidib -0.013 | Tubastatin A 0.002 | [1] -0.004 | defactinib 0.038 | [2] 0.045 | encorafenib -0.041 | [3] 0.145 | alisertib -0.032 | gefitinib 0.005

ALDOA (UniProt H3BPS8)
inactive: alvocidib 0.091 | [1] -0.206 | defactinib 0.046 | encorafenib -0.104 | [3] 0.186 | alisertib -0.13 | [4] -0.014 | gefitinib -0.254

ANKRD10 (UniProt Q9NXR5)
inactive: alvocidib 0.003 | Tubastatin A -0.037 | [1] 0.018 | defactinib 0.012 | [2] -0.016 | alisertib -0.018 | [4] 0.035 | gefitinib -0.047

ALDH3A2 isoform 2 (UniProt P51648)
inactive: alvocidib -0.102 | Tubastatin A -0.393 | [2] -0.347 | alisertib 0.067 | gefitinib -0.07

AP3M2 (UniProt P53677)
inactive: alvocidib -0.017 | Tubastatin A 0.12 | [1] 0.071 | defactinib 0.048 | [2] 0.016 | encorafenib -0.024 | [3] 0.169 | [4] -0.024

ANGPTL4 (UniProt M0R3A2)
inactive: alvocidib 0.025 | Tubastatin A 0.226 | [1] -0.056 | defactinib -0.001 | encorafenib 0.974 | [3] -0.008 | [4] -0.144

ANXA2 (UniProt H0YL33)
inactive: alvocidib 0.315 | Tubastatin A 0.109 | [1] -0.177 | [2] 0.222 | alisertib 0.001 | [4] 0.005 | gefitinib 0.097

ANKRD44 isoform 2 (UniProt Q8N8A2)
inactive: alvocidib -0.688 | [1] 0.075 | defactinib -0.129 | encorafenib -0.048 | [3] 0.103 | alisertib 0.2 | [4] 0.119 | gefitinib 0.169

ANKRD50 (UniProt Q9ULJ7)
inactive: alvocidib -0.047 | Tubastatin A -0.063 | [1] -0.001 | encorafenib -0.259 | [3] 0.193 | alisertib -0.079 | [4] -0.039 | gefitinib -0.042

ANKHD1 isoform 2 (UniProt Q8IWZ3)
inactive: alvocidib -0.083 | Tubastatin A -0.091 | [1] 0.148 | [2] -0.147 | encorafenib 0.114 | [3] 0.071 | alisertib 0.04 | gefitinib 0.024

AP1S3 isoform 4 (UniProt Q96PC3)
inactive: alvocidib -0.021 | Tubastatin A -0.053 | [1] -0.092 | [2] 0.052 | alisertib 0.156 | [4] -0.113 | gefitinib 0

ALKBH7 (UniProt Q9BT30)
inactive: alvocidib -0.016 | Tubastatin A -0.045 | [1] 0.35 | [2] -0.029 | encorafenib -0.115 | [3] 0.201 | alisertib 0.333 | gefitinib -0.108

ALG12 (UniProt Q9BV10)
inactive: alvocidib -0.004 | Tubastatin A 0.071 | [1] 0.031 | defactinib -0.064 | [2] 0.13 | encorafenib 0.024 | [3] -0.06 | [4] 0.043

ALOX12B (UniProt O75342)
inactive: alvocidib -0.099 | Tubastatin A 0.159 | [1] -0.026 | alisertib 0.016 | gefitinib -0.026

ANKS3 (UniProt Q6ZW76)
inactive: alvocidib 0.114 | defactinib 0.133 | [2] 0.101 | encorafenib 0.045 | [3] -0.051 | [4] 0.259

ALG11 (UniProt Q2TAA5)
inactive: alvocidib 0.126 | Tubastatin A 0.081 | [1] 0.113 | [2] -0.069 | alisertib -0.122 | gefitinib -0.036

ALG10B (UniProt Q5I7T1)
inactive: alvocidib 0.117 | Tubastatin A 0.016 | [1] 0.029 | [2] -0.086 | alisertib 0.083 | [4] 0.046 | gefitinib 0.038

ANKS6 isoform 4 (UniProt Q68DC2)
inactive: Tubastatin A -0.115 | [1] 0.052 | [2] 0.076 | encorafenib 0.12 | [3] 0.096 | alisertib -0.024 | gefitinib 0.193

AP2S1 (UniProt M0QZ21)
inactive: alvocidib 0.032 | [4] -0.016

ANKH (UniProt Q9HCJ1)
inactive: Tubastatin A 0.321 | [1] -0.015 | defactinib -0.116 | encorafenib -0.034 | [3] -0.088 | alisertib -0.198 | [4] -0.034 | gefitinib 0.34

AP1S2 (UniProt H7BZG6)
inactive: [1] -0.011

AP2M1 (UniProt C9JPV8)
inactive: [4] -0.243

ANKRD16 (UniProt Q6P6B7)
inactive: alvocidib -0.118 | [2] 0.023 | encorafenib -0.111 | [3] 0.186 | alisertib -0.207 | [4] 0.079 | gefitinib 0.025

AMZ2 (UniProt Q86W34)
inactive: Tubastatin A 0.001 | [1] -0.034 | defactinib 0.004 | [2] 0.071 | encorafenib 0.117 | [3] -0.024 | alisertib -0.007 | [4] 0.016 | gefitinib -0.003

AMOT (UniProt Q4VCS5)
inactive: Tubastatin A -0.023 | [2] 0.003 | encorafenib 0.043 | [3] -0.027 | alisertib 0.15 | gefitinib -0.116

ANKRD13B (UniProt Q86YJ7)
inactive: [2] 0.268 | encorafenib -0.005 | [3] 0.187 | [4] 0.274

ANKRD12 (UniProt Q6UB98)
inactive: Tubastatin A -0.087 | encorafenib -0.049 | [3] -0.157

ANKIB1 (UniProt Q9P2G1)
inactive: Tubastatin A -0.205

AP1G1 (UniProt H3BV30)
inactive: [4] 0.009

AKTIP isoform 2 (UniProt Q9H8T0)
inactive: Tubastatin A -0.02 | [1] -0.114 | [2] -0.03 | encorafenib -0.034 | [3] 0.058 | [4] 0.132

ANKRD39 (UniProt Q53RE8)
inactive: alvocidib -0.032 | [2] 0.061 | alisertib -0.051 | gefitinib -0.025

ANAPC13 (UniProt Q9BS18)
inactive: defactinib -0.02 | encorafenib 0.052 | [3] 0.001

AP1B1 isoform 3 (UniProt Q10567)
inactive: Tubastatin A -0.079

ALDH18A1 isoform 2 (UniProt P54886)
inactive: Tubastatin A -0.06 | defactinib 0.016 | [2] -0.139

ANP32E isoform 3 (UniProt Q9BTT0)
inactive: alvocidib -0.27 | defactinib -0.141 | encorafenib 0.036 | [3] -0.015

ANKRD26 (UniProt Q9UPS8)
inactive: Tubastatin A -0.024 | [1] 0.503 | defactinib -0.14 | encorafenib -0.017 | [3] 0.147 | alisertib 0.233 | [4] 0.118 | gefitinib -0.06

AMIGO2 (UniProt Q86SJ2)
inactive: alvocidib -0.12 | defactinib 0.013 | alisertib 0.12 | gefitinib 0.089

Three records picked at random from the list so far, as already listed:
ANKRD26 (UniProt Q9UPS8)
inactive: Tubastatin A -0.024 | [1] 0.503 | defactinib -0.14 | encorafenib -0.017 | [3] 0.147 | alisertib 0.233 | [4] 0.118 | gefitinib -0.06

ANP32E isoform 3 (UniProt Q9BTT0)
inactive: alvocidib -0.27 | defactinib -0.141 | encorafenib 0.036 | [3] -0.015

AP1B1 isoform 3 (UniProt Q10567)
inactive: Tubastatin A -0.079

(list continues)

ANKRD13C (UniProt Q8N6S4)
inactive: Tubastatin A 0.041

ALG13 isoform 2 (UniProt Q9NP73)
inactive: alvocidib 0.003 | alisertib -0.281 | gefitinib -0.095

ANKRD31 (UniProt Q8N7Z5)
inactive: [2] 0.304 | encorafenib 0.098 | [3] 0.027 | [4] -0.19

ALPK1 (UniProt Q96QP1)
inactive: [1] -0.114

ANKS1B (UniProt Q7Z6G8)
inactive: [4] -0.011

ALDH1A3 (UniProt P47895)
inactive: encorafenib -0.596 | [3] 0.44

ALDH9A1 (UniProt P49189)
inactive: Tubastatin A 0.024 | defactinib -0.279 | [2] -0.061

AMN1 (UniProt Q8IY45)
inactive: alvocidib 0.134 | [4] -0.12

AKT1S1 (UniProt M0R2V8)
inactive: alisertib -0.13 | [4] 0.141 | gefitinib -0.177

AP3S2 (UniProt P59780)
inactive: [1] 0.091 | alisertib 0.104 | [4] -0.092 | gefitinib -0.089

AP2M1 (UniProt C9JTK4)
inactive: Tubastatin A 0.161

ANXA6 (UniProt E5RK69)
inactive: [1] -0.051 | [2] 0.023 | encorafenib -0.052 | [3] -0.06 | alisertib 0.024 | [4] 0.069 | gefitinib 0.058

ALG14 (UniProt Q96F25)
inactive: [4] -0.062

ANKHD1 (UniProt D6RHC4)
inactive: Tubastatin A 0.197 | [1] -0.066 | [2] 0.021 | [4] 0.085

ANO9 (UniProt A1A5B4)
inactive: Tubastatin A 0.058 | [2] 0.202
